Test results published in publication PMC4741966.
No constants are given. Whether binding was seen depends on the method and setting. In cells and extracts the contact can be indirect. Some results given as binding are weak or reduced against the parent protein; the word gives no strength.

Sequences of proteins named here, by UniProt entry; tags and fusion partners are left off.
UniProt Q64010: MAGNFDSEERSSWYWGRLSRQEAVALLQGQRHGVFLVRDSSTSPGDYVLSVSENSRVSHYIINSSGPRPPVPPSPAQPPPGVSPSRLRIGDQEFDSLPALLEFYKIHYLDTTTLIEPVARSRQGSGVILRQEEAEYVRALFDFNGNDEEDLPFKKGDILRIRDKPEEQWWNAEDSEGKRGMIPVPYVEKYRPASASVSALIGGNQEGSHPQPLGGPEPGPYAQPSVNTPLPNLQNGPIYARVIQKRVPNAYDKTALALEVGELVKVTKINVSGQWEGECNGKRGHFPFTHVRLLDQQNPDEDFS
UniProt P00520: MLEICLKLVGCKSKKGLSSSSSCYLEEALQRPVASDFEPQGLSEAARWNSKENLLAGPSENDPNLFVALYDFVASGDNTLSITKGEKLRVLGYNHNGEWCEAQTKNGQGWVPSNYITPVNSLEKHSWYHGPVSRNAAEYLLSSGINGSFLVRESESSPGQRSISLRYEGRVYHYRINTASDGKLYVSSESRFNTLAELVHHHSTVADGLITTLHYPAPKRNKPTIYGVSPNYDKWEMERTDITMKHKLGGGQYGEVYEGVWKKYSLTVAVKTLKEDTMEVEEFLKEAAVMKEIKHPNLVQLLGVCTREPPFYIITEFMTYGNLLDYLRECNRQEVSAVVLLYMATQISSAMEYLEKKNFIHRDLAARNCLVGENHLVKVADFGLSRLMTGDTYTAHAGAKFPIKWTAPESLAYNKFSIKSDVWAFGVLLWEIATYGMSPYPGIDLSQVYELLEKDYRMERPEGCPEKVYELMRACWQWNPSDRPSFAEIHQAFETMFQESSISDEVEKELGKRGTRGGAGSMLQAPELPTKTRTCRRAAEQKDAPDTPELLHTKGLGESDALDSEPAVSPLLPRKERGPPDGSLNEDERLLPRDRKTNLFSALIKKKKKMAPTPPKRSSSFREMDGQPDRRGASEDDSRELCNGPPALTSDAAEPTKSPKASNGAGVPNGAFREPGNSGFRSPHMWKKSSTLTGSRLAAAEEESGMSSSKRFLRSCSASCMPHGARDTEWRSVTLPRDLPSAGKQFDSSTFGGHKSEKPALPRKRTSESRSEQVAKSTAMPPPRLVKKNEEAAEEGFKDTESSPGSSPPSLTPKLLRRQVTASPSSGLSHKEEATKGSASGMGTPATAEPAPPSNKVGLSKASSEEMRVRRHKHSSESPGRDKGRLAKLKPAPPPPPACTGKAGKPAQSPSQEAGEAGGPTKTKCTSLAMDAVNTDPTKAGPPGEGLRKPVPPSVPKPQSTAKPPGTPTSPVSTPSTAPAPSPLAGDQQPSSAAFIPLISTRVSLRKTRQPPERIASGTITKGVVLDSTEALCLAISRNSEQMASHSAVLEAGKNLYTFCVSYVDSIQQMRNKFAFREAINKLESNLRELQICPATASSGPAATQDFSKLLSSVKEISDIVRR

Target: Crk (endogenous, in MEFs) (mouse (endogenous in MEFs)) (UniProt Q64010)
Assay: co-IP; endogenous proteins; Crk immunoprecipitated and blotted for Abl, and the reverse with an Abl antibody and a Crk blot; Abi1-/- MEFs compared with Abi1-expressing cells, after diluent or hEGF; lysis in 1% HNTG buffer, protein A/G agarose, washes with 0.1% HNTG

In the case of “Abl kinase (endogenous, in MEFs) (from UniProt P00520 1-1123) (enzyme)”, the binding is reported as “binds”.
